Measurements taken from PubChem BioAssay AID270 (DTP/NCI, 2004).
Results filed as inconclusive are left out. The calls were made as follows: active = survival T/C of 150% or more; inactive = T/C below 125% in these data.

System: BDF1 mice, s.c. Lewis lung carcinoma, T/C %
Assay: NCI In Vivo Anticancer Drug Screen. Data for tumor model Lewis Lung Carcinoma (subcutaneous) in B6D2F1 (BDF1) mice
Conditions: endpoint: median survival time, schedule: Q01DX009 (ip), higher = longer survival
Procedure: The antitumor activity of compounds was measured in mice bearing transplantable tumors. Survival or tumor size were measured and the results are expressed as the measurement made in the treated group (T) divided by the measurement made in the vehicle treated control group (C). The tumor model used in this assay is Lewis Lung Carcinoma (subcutaneous) in B6D2F1 (BDF1) mice

Measured: T/C

COc1cc2c(c(OC)c1OC)-c1ccc(OC)c(=O)cc1[C@@H](N)CC2
inactive: dose: 0.63 mg/kg/injection, vehicle: Klucel (hydroxypropylcellulose) (HPC) 112 % of control | dose: 1.25 mg/kg/injection, vehicle: Klucel (hydroxypropylcellulose) (HPC) 117 % of control | dose: 2.5 mg/kg/injection, vehicle: Klucel (hydroxypropylcellulose) (HPC) 122 % of control | dose: 5.0 mg/kg/injection, vehicle: Klucel (hydroxypropylcellulose) (HPC) 101 % of control

COc1c(O)cc2c(c1OC)-c1ccc(OC)c(=O)cc1[C@@H](NC(C)=O)CC2
inactive: dose: 0.63 mg/kg/injection, vehicle: saline with Tween-80 = 99 % of control | dose: 1.25 mg/kg/injection, vehicle: saline with Tween-80 = 104 % of control | dose: 2.5 mg/kg/injection, vehicle: saline with Tween-80 = 103 % of control | dose: 5.0 mg/kg/injection, vehicle: saline with Tween-80 = 104 % of control
